Values from PubChem BioAssay AID686937 (Drosophila RNAi Screening Center, 2013).

Test: 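Knock-downs that reduce output of a secreted reporter enzyme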 (primary screen)
System: Drosophila S2 cells expressing secreted horseradish peroxidase
Knock-down reagent: long dsRNA against Drosophila genes
Duration: about 5.5 days (5 days dsRNA, then 12 h reporter induction)
Challenge: reporter expression induced after 5 days of dsRNA, read 12 h later; inducer not stated
Measured: 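Chemiluminescent measurement of peroxidase in the medium 12 h after reporter induction, following 5 days of dsRNA, given as a z-score per plate; higher means more secretion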
Direction: z-score: higher = more reporter secreted into medium
In all, the deposit lists about 23,000 reagents; shown is an unselected part of those that have a named target and a result. 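Reduced-secretion tags in replicate 1 do not always agree with the z-scores; no criterion for assigning the tags was given.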 Reagents against one gene are numbered here. Names joined by + are all predicted targets of the reagent. Not stated in the record: the amount of reagent.

After knock-down of loco (locomotion defects) #1, the record shows z-score, replicate 1 = 0.31; z-score, replicate 2 = 0.31. loco (locomotion defects) #2 scored z-score, replicate 1 = 0.23; z-score, replicate 2 = 0.2. With knock-down of CG13066 the results were z-score, replicate 1 = 0.4; z-score, replicate 2 = 0.26. CG4438 scored z-score, replicate 1 = 0.46; z-score, replicate 2 = 0.45. Depletion of loh (lonely heart) #1 gave: z-score, replicate 1 = 0.42; z-score, replicate 2 = 0.46. With knock-down of loh (lonely heart) #2, the screen gave z-score, replicate 1 = -0.4; z-score, replicate 2 = 0.14.

MCU (Mitochondrial calcium uniporter) scored z-score, replicate 1 = 0.49; z-score, replicate 2 = 0.39. For mod(mdg4) (modifier of mdg4) #1, the values are z-score, replicate 1 = 0.51; z-score, replicate 2 = 0.19. Knock-down of mod(mdg4) (modifier of mdg4) #2 came out at: z-score, replicate 1 = 0.58; z-score, replicate 2 = 0.05. For mod(mdg4) (modifier of mdg4) #3, the values are z-score, replicate 1 = -0.16; z-score, replicate 2 = 0.07. mod(mdg4) (modifier of mdg4) #4 showed z-score, replicate 1 = 0.42; z-score, replicate 2 = -0.33. For mod(mdg4) (modifier of mdg4) #5, the entry reads z-score, replicate 1 = 0.22; z-score, replicate 2 = 0.11.

Silencing of mod(mdg4) (modifier of mdg4) #6 resulted in: z-score, replicate 1 = 0.42; z-score, replicate 2 = 0.51. With knock-down of Ir47a (Ionotropic receptor 47a) the results were z-score, replicate 1 = 0.4; z-score, replicate 2 = 0.24. For slim (scruin like at the midline), the values are z-score, replicate 1 = 0.31; z-score, replicate 2 = 0.41. With knock-down of Calr (Calreticulin), the record shows z-score, replicate 1 = -1.39; z-score, replicate 2 = -1.79. With knock-down of Scsalpha1 (Succinyl-coenzyme A synthetase alpha subunit 1), the record shows z-score, replicate 1 = 0.24; z-score, replicate 2 = 0.42. After knock-down of Gyc76C + CG42637, the screen gave z-score, replicate 1 = 0.53; z-score, replicate 2 = 0.39.

For CG14605, the values are z-score, replicate 1 = 0.08; z-score, replicate 2 = -6.45. ppk3 (pickpocket 3) showed z-score, replicate 1 = 0.13; z-score, replicate 2 = 0.31. With knock-down of CG8036 the results were z-score, replicate 1 = -0.72; z-score, replicate 2 = -1.01. After knock-down of Obp47b + CG7741, the screen gave z-score, replicate 1 = 0.35; z-score, replicate 2 = 0.44. For CG31036 #1 the deposit lists z-score, replicate 1 = 0.2; z-score, replicate 2 = 0.5. For CG31036 #2 the deposit lists z-score, replicate 1 = 0.1; z-score, replicate 2 = 0.06.

Against Fur1 (Furin 1) #1 the deposit lists z-score, replicate 1 = -0.23; z-score, replicate 2 = 0.16. Depletion of Fur1 (Furin 1) #2 resulted in: z-score, replicate 1 = -0.22; z-score, replicate 2 = 0. Silencing of Ada2b (transcriptional Adaptor 2b) resulted in: z-score, replicate 1 = -0.03; z-score, replicate 2 = -0.16.

Targets above whose target name begins with S or s:
slim (scruin like at the midline) — z-score, replicate 1: 0.31; z-score, replicate 2: 0.41
Scsalpha1 (Succinyl-coenzyme A synthetase alpha subunit 1) — z-score, replicate 1: 0.24; z-score, replicate 2: 0.42
